Results are given in words; binding and its absence hold for the method and conditions named. For some of these results: Binding seen in cells or lysates may run through a third protein. Some binding calls cover weakened binding; strength is not graded here.
Assays:
[1] = molecular target: T1, untagged mTRF2 (mouse, UniProt O35144 46-541, limits assumed); assay: co-immunoprecipitation (FIG. 12B)
T1 construct: In vitro translated and 35S-methionine labelled; also called mouse TRF2
T1 sequence: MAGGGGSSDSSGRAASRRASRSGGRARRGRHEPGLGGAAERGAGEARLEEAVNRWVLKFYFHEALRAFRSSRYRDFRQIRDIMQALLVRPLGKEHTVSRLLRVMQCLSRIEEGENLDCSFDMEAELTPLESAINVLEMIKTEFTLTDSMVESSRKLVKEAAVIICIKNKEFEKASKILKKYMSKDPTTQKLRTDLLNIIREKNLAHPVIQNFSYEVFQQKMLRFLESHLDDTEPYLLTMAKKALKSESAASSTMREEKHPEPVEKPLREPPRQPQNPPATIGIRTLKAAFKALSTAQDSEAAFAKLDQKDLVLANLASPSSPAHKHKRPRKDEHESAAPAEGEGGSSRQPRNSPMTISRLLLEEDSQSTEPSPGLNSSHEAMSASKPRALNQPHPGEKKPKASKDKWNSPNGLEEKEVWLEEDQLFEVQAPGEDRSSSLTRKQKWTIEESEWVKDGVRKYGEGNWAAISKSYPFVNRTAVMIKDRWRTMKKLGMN

The chains behind the UniProt entries cited, without tags or fusion partners. Where a name states a change or a piece, a line headed by the entry shows the natural chain unless it says otherwise.
UniProt Q15554: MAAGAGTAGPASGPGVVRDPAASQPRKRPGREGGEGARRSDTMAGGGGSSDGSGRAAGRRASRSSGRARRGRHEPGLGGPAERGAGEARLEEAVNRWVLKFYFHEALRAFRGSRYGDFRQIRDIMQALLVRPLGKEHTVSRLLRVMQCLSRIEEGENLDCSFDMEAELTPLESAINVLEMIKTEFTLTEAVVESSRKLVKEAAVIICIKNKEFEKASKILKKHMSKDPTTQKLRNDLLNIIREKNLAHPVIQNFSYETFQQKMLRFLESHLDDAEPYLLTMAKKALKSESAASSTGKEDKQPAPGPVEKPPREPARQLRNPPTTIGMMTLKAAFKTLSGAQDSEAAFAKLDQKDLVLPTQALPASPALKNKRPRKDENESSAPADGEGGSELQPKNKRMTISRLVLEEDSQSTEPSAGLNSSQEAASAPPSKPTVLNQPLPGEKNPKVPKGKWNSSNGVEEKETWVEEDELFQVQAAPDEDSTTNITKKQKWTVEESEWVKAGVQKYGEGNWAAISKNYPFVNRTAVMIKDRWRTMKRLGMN

[2] = molecular target: T1, untagged mTRF2; assay: co-immunoprecipitation of in vitro translated 35S-labelled proteins with M2 anti-FLAG antibody
Source text: FIG. 12: TRF2 interacts with TRF2 but not with TRF1. […] Values represent an average of three to nine independent transformants. FIG. 12B depicts in vitro translated ³⁵S-methionine labelled TRF1 and TRF2 proteins with or without an N-terminal FLAG tag (indicated above the lanes) were immunoprecipitated using the M2 anti-FLAG antibodies and analyzed by autoradiography.
Co-immunoprecipitation experiments. The human and mouse TRF1 constructs used were previously described [Chong et al., Science, 270:1663-1667 (1995); Broccoli et al., Hum. Mol. Genetics, 6:69-76 (1997); Bianchi et al., supra (1997)]. The FLAG-tagged mTRF2 and untagged mTRF2 were translated from cDNAs described above. ³⁵S-methionine labelled proteins [Chong et al., Science, 270:1663-1667 (1995); Broccoli et al., Hum. Mol. Genetics, 6:69-76 (1997); Bianchi et al., supra, (1997)] were immunoprecipitated using the M2 anti-FLAG antibody in buffer D (20 mM Hepes-KOH pH 7.9, 100 mM KCl, 20% glycerol, 0.2 mM EDTA, 0.2 mM EGTA, 0.1 % NP40, 0.1 % Triton-X-100, 0.5 mM DTT, 0.5 mM PMSF) followed by four washes in buffer D with detergents and two washes in buffer D without detergent. Pellets were suspended in SDS/PAGE loading buffer and resolved on a 9% SDS-polyacrylamide gel.

[3] = molecular target: hTRF2 dimerization domain (amino acid 45 to amino acid 246), LexA and GAD fusion proteins (human) (UniProt Q15554); assay: yeast 2-hybrid, LexA and GAD fusions of the dimerization domain
[4] = molecular target: hTRF2 dimerization domain (amino acid 45 to amino acid 246), LexA and GAD fusion proteins (human) (UniProt Q15554); assay: yeast 2-hybrid (FIG. 12A)

Substance: FLAG-tagged full length mTRF2 (from UniProt O35144 46-541)
- binding [1]: binds
- binding [2]: binds

Substance: hTRF2 dimerization domain (amino acid 45 to amino acid 246), LexA and GAD fusion proteins (from UniProt Q15554 87-288)
- binding [3]: binds
- binding [4]: binds

Reference: patent publication US20020076719A1 (ROCKEFELLER UNIVERSITY, published 2002)
